Results reported in patent US6583179B2, “Substituted aminoalkylamide derivatives as antagonists of follicle stimulating hormone” (Ortho-McNeil Pharmaceutical, Inc., priority 1999, dated 2003).

Chains of the proteins cited; added tags and fusions are not shown. Residues count along the entry.
UniProt P23945, 18-695 limits assumed: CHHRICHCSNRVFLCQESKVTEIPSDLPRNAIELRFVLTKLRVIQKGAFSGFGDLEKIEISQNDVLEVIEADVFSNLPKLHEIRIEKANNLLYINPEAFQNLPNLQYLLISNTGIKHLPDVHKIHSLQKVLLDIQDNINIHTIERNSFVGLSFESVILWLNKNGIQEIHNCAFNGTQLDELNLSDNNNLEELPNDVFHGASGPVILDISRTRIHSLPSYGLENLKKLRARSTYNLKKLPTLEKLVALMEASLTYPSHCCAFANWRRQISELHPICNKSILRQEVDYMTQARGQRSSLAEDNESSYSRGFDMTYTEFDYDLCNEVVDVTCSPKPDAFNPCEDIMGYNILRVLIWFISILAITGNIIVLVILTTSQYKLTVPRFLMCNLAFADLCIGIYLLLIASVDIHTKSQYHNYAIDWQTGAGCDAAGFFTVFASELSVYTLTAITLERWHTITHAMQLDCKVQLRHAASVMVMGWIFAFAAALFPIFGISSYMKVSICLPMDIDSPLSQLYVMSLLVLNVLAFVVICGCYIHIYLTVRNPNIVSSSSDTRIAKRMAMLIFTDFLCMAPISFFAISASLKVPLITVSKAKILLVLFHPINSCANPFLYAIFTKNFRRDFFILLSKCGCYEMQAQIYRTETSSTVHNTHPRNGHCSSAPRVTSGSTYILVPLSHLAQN

How the values were obtained:
human FSH receptor = human FSH receptor (Homo sapiens, UniProt P23945); assay: hFSHR CHO cAMP assay (rhFSHR-cLUC cells, FSH-stimulated cAMP, radioimmunoassay); conditions: read-out: EC50 hFSHR CHO cAMP; inhibition of cAMP produced by EC70 dose of FSH (4.85 nM); maximum concentration 50 μM
Excerpt: Minimum Essential Medium-Alpha (MEM-alpha), fetal bovine serum (FBS), penicillin, streptomycin, geneticin, trypsin-EDTA, Hanks' Balanced Salt Solution (no Calcium chloride, Magnesium chloride, Magnesium sulfate, or phenol red; Ca-Mg free HBSS) were purchased from Gibco BRL (Gaithersburg, Md.). The cells used for the FSH bioassay (rhFSHR-cLUC) were Chinese Hamster Ovary cells (K-1; ATCC) stably transformed with human FSH receptor (pSVK-FSHr) and a cAMP luciferase reporter gene (responsive CGα-180LUC). Follicle Stimulating Hormone (Metrodin; Fertinex) was purchased from Serono, Ltd. (Norwell, Mass.).
The rhFSHR-cLUC cell cultures were maintained in MEM-Alpha supplemented with 10% heat-inactivated FBS (HIFBS), 100 U/ml penicillin, 100 μg/mL streptomycin, and included 0.1 g/L geneticin for stable cell selection.
Forty-eight hours after the cells were plated in sterile 96-well culture plates (Corning, Corning, N.Y.) the spent media was removed and 50 μl assay media (modified growth media with 2% HIFBS) containing 2 mM IBMX (3-isobutyl-1-methyl-xanthine) was added to the cells. Compounds (25 μl) in the appropriate concentration were added followed 5 minutes later by an EC70 dose of FSH (25 μl; 160 ng/ml; 4.85 nM). After 10 minutes @ 22.5° C. (room temperature) the reaction was terminated by addition of 25 μL 0.5 N hydrochloric acid to each well. The amount of cAMP produced was measured by radioimmunoassay in a FlashPlate (DuPont, Boston, Mass.). To each flash plate 60 μL flash plate buffer was added followed by 40 μL acidified cell sample or cAMP standard, followed with the addition of 100 μl ^125l-cAMP trace. The FlashPlates were sealed, incubated overnight @ room temperature, and counted in a Packard TopCount (Packard Instrument Co., Meriden, Conn.). The cAMP radioimmunoassay results were calculated using DPM conversion and log-logit transformation of % binding (Excel program).
(§1) Test compounds were solubilized in 30% dimethyl sulfoxide (DMSO) at a concentration of 10 mM before diluting to appropriate concentrations in assay medium. The final DMSO concentration in the treated cells and in the control cells was 0.75%.
For individual experiments, a set of samples were tested including a vehicle control (assay buffer), a reference compound (hFSH) at a range of concentrations designed to elicit a minimal to maximal response, and several concentrations of test compounds together with an EC70 concentration of standard (hFSH challenge). Each compound was performed in duplicates for the primary evaluation and quadruplicates for the dose-ranging experiments. The cAMP radioimmunoassay raw data (pmol) were calculated to provide average pmol cAMP produced/ml and the percent inhibition was calculated as shown below.
% Inh=[1−(Avg.pmoltest compound+standard)/(Avg.pmolstandard)]×100
EC50 values were calculated from an analysis of the concentration-inhibition data using a linear analysis of the data transformed to a log-logit format.

Rat Granulosa Cell = assay: Rat granulosa cell FSH-stimulated cAMP production; conditions: read-out: Rat Granulosa Cell EC50 cAMP; inhibition of cAMP produced by EC70 dose of FSH (1.4 nM); maximum concentration 50 μM
Protocol: Insulin, diethylstilbesterol, androstenedione, forskolin and DMSO were purchased from Sigma (St. Louis, Mo.). Fungizone, penicillin/streptomycin, charcoal-treated heat inactivated fetal bovine serum (CT-HI-FBS) and Dulbecco's Modified Eagle Medium:Hams F12 medium containing 15 mM Hepes and L-glutamine (DMEM:F12), were purchased from GIBCO BRL (Grand Island, N.Y.).
Ovine FSH (NIADDK-oFSH-17; FSH potency=20 NIH-FSH-S1 U/mg; LH contamination=0.04 times NIH-LH-S1) was received from Ogden Bioservices Corporation, Rockville, Md. Human FSH (Fertinex), was purchased from Serono Pharmaceutical (Framingham, Mass.). Human chorionic gonadotropin (hCG) was purchased from Sigma (St Louis, Mo.).
Immature intact female rats (Wistar-derived strain; 21-23 days old) were implanted with a single pellet (Innovative Research of America, Sarasota, Fla.) containing 2.5 mg diethylstilbesterol (DES) for 3 days. On the third day, the animals were sacrificed, the ovaries were removed, and the granulosa cells were isolated essentially as described in Haynes-Johnson et al., Biol. Reprod., 61 (1), 147-153, (1999). Granulosa cells were plated at a density of 300,000 cells per ml with 0.2 ml added to each well of 96 well culture dishes (Corning, N.Y.). Cultures were incubated at 37° C. in a humidified incubator (95% air, 5% CO2) overnight (18 hours).
Androstenedione (100,000X) was prepared by dissolving the steroid in 100% ethanol, and was subsequently diluted to a final concentration of 10^−7M containing 0.1% ethanol in assay media. The assay media was serum-free, DES-free, insulin-free media, prepared by adding 5 mL pen-strep,1.5 mL fungizone and 5 μL androstenedione to 493.5 mL DMEM F-12 media.
as §1
Test plates containing the granulosa cells were preincubated for 18 hours at 37° C. with 95% air, 5% CO2, 100% humidity. The spent media was removed and 50 μl assay media (DMEM:F12) containing 2 mM IBMX (3-isobutyl-1-methyl-xanthine) was added to the cells. Compounds (25 μl) in the appropriate concentration were added followed 5 minutes later by an EC70 dose of FSH (25 μl; 50 ng/ml; 1.4 nM). After 30 minutes @ 22.5° C. (room temperature) the reaction was terminated by addition of 25 μL 0.5 N hydrochloric acid to each well. The amount of cAMP produced was measured by radioimmunoassay in a FlashPlate (DuPont, Boston, Mass.). To each flash plate 60 μL flash plate buffer was added followed by 40 μL acidified cell sample or cAMP standard, followed with the addition of 100 μl ^125l-cAMP trace. The FlashPlates were sealed, incubated overnight @ room temperature, and counted in a Packard TopCount (Packard Instrument Co., Meriden, Conn.). The cAMP radioimmunoassay results were calculated using DPM conversion and log-logit transformation of % binding (Excel program).

| EC50 (human FSH receptor) [µM] | EC50 (Rat Granulosa Cell) [nM] | SMILES |
| --- | --- | --- |
| 0.13 |  | COC(CN(CC(=O)NCCCCCCN)S(=O)(=O)c1ccc(-c2ccccc2Cl)cc1)c1ccccc1 (stereo not drawn) |
| 1.27 |  | COc1ccc(S(=O)(=O)N(CC(=O)NCc2ccc(CN)cc2)C[C@H](C)c2ccccc2)cc1 |
| 18.2 |  | COc1ccccc1CCN(CC(=O)NCc1cccc(CN)c1)S(=O)(=O)c1ccc(-c2ccccc2Cl)cc1 |
| 0.26 |  | C[C@@H](CN(CC(=O)NCc1cccc(CN)c1)S(=O)(=O)c1ccc(-c2cccc(F)c2)cc1)c1ccccc1 |
| 0.21 |  | Cc1ccccc1CCN(CC(=O)NCc1ccc(CN)cc1)S(=O)(=O)c1ccc(-c2ccccc2Cl)cc1 |
| 0.36 |  | NCc1ccc(CNC(=O)CN(CCc2cccc(C(F)(F)F)c2)S(=O)(=O)c2ccc(-c3ccccc3)cc2)cc1 |
| 7.83 | 1600 | COc1ccc(-c2ccc(S(=O)(=O)N(CC(=O)N[C@H]3CC[C@H](N)CC3)Cc3ccccc3OC)cc2)cc1 (relative stereo) |
| 3.68 | 590 | COc1ccc(-c2ccc(S(=O)(=O)N(CCc3ccccc3OC)CC(=O)N[C@H]3CC[C@H](N)CC3)cc2)cc1 (relative stereo) |
| ≥ 50 | 3080 | COc1cccc(-c2ccc(S(=O)(=O)N(CC(=O)N[C@H]3CC[C@H](N)CC3)Cc3ccccc3OC)cc2)c1 (relative stereo) |
| 4.99 | 320 | COc1ccccc1CCN(CC(=O)N[C@H]1CC[C@H](N)CC1)S(=O)(=O)c1ccc(-c2ccc(C)cc2)cc1 (relative stereo) |
| 4.31 | 550 | COc1ccccc1CCN(CC(=O)N[C@H]1CC[C@H](N)CC1)S(=O)(=O)c1ccc(-c2ccc(F)cc2)cc1 (relative stereo) |
| 6.04 | 430 | COc1ccccc1CCN(CC(=O)N[C@H]1CC[C@H](N)CC1)S(=O)(=O)c1ccc(-c2cccc(OC)c2OC)cc1 (relative stereo) |
| 4.89 | 25100 | COc1ccccc1CCN(CC(=O)N[C@H]1CC[C@H](N)CC1)S(=O)(=O)c1ccc(-c2cccc3ccccc23)cc1 (relative stereo) |
| 3.98 | 170 | COc1ccccc1CCN(CC(=O)N[C@H]1CC[C@H](N)CC1)S(=O)(=O)c1ccc(-c2ccccc2Cl)cc1 (relative stereo) |
| 8.23 | 3090 | COc1ccccc1CCN(CC(=O)N[C@H]1CC[C@H](N)CC1)S(=O)(=O)c1ccc(-c2ccccc2OC)cc1 (relative stereo) |
| 5.98 | 320 | COc1ccccc1CCN(CC(=O)N[C@H]1CC[C@H](N)CC1)S(=O)(=O)c1ccc(-c2ccsc2)cc1 (relative stereo) |

| EC50 (human FSH receptor) [µM] | EC50 (Rat Granulosa Cell) [nM] | SMILES |
| --- | --- | --- |
| 12.2 | 140 | COc1ccccc1CN(CC(=O)N[C@H]1CC[C@H](N)CC1)S(=O)(=O)c1ccc(-c2c(C)noc2C)cc1 (relative stereo) |
| ≥ 50 | 900 | COc1ccccc1CN(CC(=O)N[C@H]1CC[C@H](N)CC1)S(=O)(=O)c1ccc(-c2ccc(C#N)cc2)cc1 (relative stereo) |
| 3.06 | 230 | COc1ccccc1CN(CC(=O)N[C@H]1CC[C@H](N)CC1)S(=O)(=O)c1ccc(-c2ccc(C)cc2)cc1 (relative stereo) |
| 7.4 | 190 | COc1ccccc1CN(CC(=O)N[C@H]1CC[C@H](N)CC1)S(=O)(=O)c1ccc(-c2ccc(Cl)cc2)cc1 (relative stereo) |
| 6.86 | 440 | COc1ccccc1CN(CC(=O)N[C@H]1CC[C@H](N)CC1)S(=O)(=O)c1ccc(-c2ccc(F)cc2)cc1 (relative stereo) |
| 15.2 | 170 | COc1ccccc1CN(CC(=O)N[C@H]1CC[C@H](N)CC1)S(=O)(=O)c1ccc(-c2ccc(N)cc2)cc1 (relative stereo) |
| 12.9 | 570 | COc1ccccc1CN(CC(=O)N[C@H]1CC[C@H](N)CC1)S(=O)(=O)c1ccc(-c2cccc(OC)c2OC)cc1 (relative stereo) |
| 7.06 | 25200 | COc1ccccc1CN(CC(=O)N[C@H]1CC[C@H](N)CC1)S(=O)(=O)c1ccc(-c2cccc3ccccc23)cc1 (relative stereo) |
| 12.3 | 2640 | COc1ccccc1CN(CC(=O)N[C@H]1CC[C@H](N)CC1)S(=O)(=O)c1ccc(-c2ccccc2)cc1 (relative stereo) |
| 5.09 | 120 | COc1ccccc1CN(CC(=O)N[C@H]1CC[C@H](N)CC1)S(=O)(=O)c1ccc(-c2ccccc2Cl)cc1 (relative stereo) |
| 10.2 | 940 | COc1ccccc1CN(CC(=O)N[C@H]1CC[C@H](N)CC1)S(=O)(=O)c1ccc(-c2ccccc2OC)cc1 (relative stereo) |
| 4.5 | 120 | COc1ccccc1CN(CC(=O)N[C@H]1CC[C@H](N)CC1)S(=O)(=O)c1ccc(-c2cccnc2)cc1 (relative stereo) |
| ≥ 50 | 7660 | COc1ccccc1CN(CC(=O)N[C@H]1CC[C@H](N)CC1)S(=O)(=O)c1ccc(-c2cccs2)cc1 (relative stereo) |
| 13.2 | 400 | COc1ccccc1CN(CC(=O)N[C@H]1CC[C@H](N)CC1)S(=O)(=O)c1ccc(-c2ccncc2)cc1 (relative stereo) |
| 5.09 | 200 | COc1ccccc1CN(CC(=O)N[C@H]1CC[C@H](N)CC1)S(=O)(=O)c1ccc(-c2ccsc2)cc1 (relative stereo) |
| 2.46 |  | COc1ccccc1CCN(CC(=O)NCc1ccc(CN)cc1)S(=O)(=O)c1cccc(-c2ccc(C#N)cc2)c1 [262] |

The structures given here were assigned with low confidence; some may be wrong.
